From publication PMC7378079 (Scientific Reports, 2020)
No constants are given. Whether binding was seen depends on the method and setting. A result given as binding can be weak or reduced; the word gives no strength. Tags and fused reporters may be left off the sequences shown.

Biological target: CFP-ARC2-3 (TNKS1) (human)
Experiment: FRET or BRET; ratiometric FRET (527 nm/477 nm on excitation at 410 nm): 250 nM CFP-fusion mixed with 500 nM YFP-fusion or YFP; assay buffer pH 7.0; 384-well plates, 4 replicates; both purified

B1: YFP-TBM (peptide)
chain: REAGDGEE
notes: also called TBM (REAGDGEE); YFP-fused TBM; source: E. coli BL21(DE3), purified (IMAC); not shown: mCitrine (YFP), N-terminal, kept
- binding: binds
